Results as given in publication PMC5494507, “γ‐Secretase inhibitors in cancer clinical trials are pharmacologically and functionally distinct” (EMBO Molecular Medicine, 2017).

What was measured:
Set-up in all cases: species or system human
Details in all cases: rank among the six GSIs, number in brackets
cNOTCH4sub = assay: Cell-based γ-secretase cleavage assay, cNOTCH4sub in H4 cells (Aβ-like peptide ELISA)
Method: (§1) Using these cell‐based γ‐secretase cleavage assays, we systematically investigated the substrate inhibition profile of BMS‐906024, MK‐0752, PF‐308414, RO4929097, Semagacestat, and DAPT. We treated H4 cells stably expressing cNOTCH1‐4sub with 4 pM to 10 μM of GSIs (Fig 5A and Table 2) and measured the Aβ‐like peptide secreted into the media.
(§2) For the cell‐based assay, all substrates contain a human NOTCH4 signal peptide sequence ([…]), amyloid β peptide (Aβ1–25/K16A) epitope tag followed by the juxtamembrane region (JMD) of the given substrate and a FLAG tag ([…]) at the COOH‐terminal. K16A mutant was created to decrease potential α‐secretase cleavage. The cDNAs were generated by gene synthesis conducted by Genscript. A schematic representation of the substrates is provided in Fig 4A, and sequences of the cDNAs and the proteins are provided in Appendix Fig S6. For clarity, these substrates are referred to as cell‐based assay substrates (e.g., NOTCH1 is cNOTCH1sub). Substrate cDNAs were cloned into pCDNA3.1 (Invitrogen, Carlsbad, CA, USA) for expression in H4 cells (ATCC, Manassas, VA).
(§3) H4 cells were cultured in Opti‐mem media (Thermo‐Fisher) supplemented with Hyclone 6% fetal bovine serum (GE, Logan, Utah, USA) and 1% penicillin/streptomycin (Life Technologies, Grand Island, NY, USA). pCDNA3.1 plasmids containing the substrate cDNAs were transfected into H4 cells using FuGENE HD reagent (Madison, WI, USA). Stable cell lines were established using G418 selection. […] Cells and conditioned media were used for WB, IP, and ELISA.
(§4) Sandwich ELISAs used for Aβ detection were performed as previously described (Murphy et al, 1999; Ran et al, 2014). Briefly, Aβ and Aβ‐like peptides in conditioned media were captured with Ab5 antibody and detected with horseradish peroxidase labeled mAb 4G8 (Biolegend). Synthetic Aβ1‐40 was used as standard. All ELISAs were developed with TMB substrate (KPL, Gaithersburg, Maryland, USA). Bis‐Tris precast gels (Biorad, Hercules, CA, USA) were used for all SDS–PAGE. Monoclonal anti‐FLAG M2 antibody (Sigma) and Aβ1‐16 antibody 6E10 (Covance) were used for Western blotting at 1:1,000 dilution. Anti‐CD74 In‐1 antibody (BD Bioscience, San Jose, CA, USA) was used for A20 cell lysate Western blotting at dilution of 1:1,000. MDA‐MB‐231 cell extracts were prepared by lysing cells in RIPA buffer containing protease and phosphatase inhibitors. The lysates were kept on ice for 30 min and vortexed every 10 min, and then centrifuged at 4°C for 10 min at 1,000 g. The supernatants were collected, and protein concentrations were determined by Bradford Assay. Pan‐NOTCH1 antibody (C‐20) (Santa Cruz Biotechnology) and cleaved NOTCH1 (Val1744) antibody ([…]) were used at 1:500 and 1:100 dilution in the test of endogenous NOTCH1 inhibition with β‐actin expression used as loading control. β‐actin antibody was used at 1:1,000 dilution (Sigma). Band intensities normalized for actin using densitometry analysis with ImageJ Software (NIH, USA).

cNOTCH1sub = assay: Cell-based γ-secretase cleavage assay, cNOTCH1sub in H4 cells (Aβ-like peptide ELISA)
Method: as §1, §2, §3, §4

cNOTCH3sub = assay: Cell-based γ-secretase cleavage assay, cNOTCH3sub in H4 cells (Aβ-like peptide ELISA)
Method: as §1, §2, §3, §4

Structure (SMILES)	rank order of inhibition of cNOTCH4sub (cNOTCH4sub)	rank order of inhibition of cNOTCH1sub (cNOTCH1sub)	rank order of inhibition of cNOTCH3sub (cNOTCH3sub)
CN1C(=O)[C@@H](NC(=O)[C@H](CCC(F)(F)F)[C@H](CCC(F)(F)F)C(N)=O)N=C(c2ccccc2)c2ccccc21 [BMS‐906024]	[1]	[1] ^d	[1]
C[C@H](NC(=O)Cc1cc(F)cc(F)c1)C(=O)N[C@H](C(=O)OC(C)(C)C)c1ccccc1 [DAPT]	[5]	[4]	[6]
O=C(O)CC[C@H]1CC[C@@](c2cc(F)ccc2F)(S(=O)(=O)c2ccc(Cl)cc2)CC1 [MK‐0752]	[6]	[6]	[4]
CCC[C@H](N[C@H]1CCc2cc(F)cc(F)c2C1)C(=O)Nc1cn(C(C)(C)CNCC(C)(C)C)cn1 [PF‐3084014]	[2]	[3]	[2]
CC(C)(C(=O)NCC(F)(F)C(F)(F)F)C(=O)N[C@@H]1C(=O)Nc2ccccc2-c2ccccc21 [RO4929097]	[3]	[2]	[3]
CC(C)[C@H](O)C(=O)N[C@@H](C)C(=O)N[C@@H]1C(=O)N(C)CCc2ccccc21 [Semagacestat]	[4]	[5]	[5]
